Results from the supplement of paper PMC11098740.
± gives the standard deviation of the averaged measurements. Some of the results follow. Single values are uncertain, as repeats are few or missing.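 The assay uses a mixed pool of 41 HAP1 clones in which 61 cancer-associated proteins bear intron-inserted fluorescent tags, and clones are distinguished by image pattern. Results are compared against DMSO-treated control wells, and the BRD4 degrader dBET6 is the positive control.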

target: BRD4 (intron 10 mScarlet tag, HAP1) (UniProt O60885); experiment: BRD4 median nuclear fluorescence intensity change vs DMSO (log2 fold change); higher = more BRD4 protein; details: 6 h

| SMILES | BRD4 median nuclear fluorescence intensity change (log2) |
| --- | --- |
| Nc1cc(N2CCCCC2)nc(N)[n+]1[O-] [minoxidil] (9.95605 µM) | 0.0651 ± 0.11 |
| Cc1ccsc1C(=CCCN1CCC[C@@H](C(=O)O)C1)c1sccc1C [tiagabine] (11 µM) | 0.102 |
| CCCCCCCN(CC)CCCC(O)c1ccc(NS(C)(=O)=O)cc1 (centres undefined) [ibutilide] (10.00092008 µM) | 0.209 |
| C[C@@H](Oc1cc(-c2cnn(C3CCNCC3)c2)cnc1N)c1c(Cl)ccc(F)c1Cl [crizotinib] (20 µM) | 0.0293 |
| CC(=O)c1ccc(S(=O)(=O)NC(=O)NC2CCCCC2)cc1 [acetohexamide] (10 µM) | 0.00942 |
| CC#CCC(C)[C@H](O)/C=C/[C@@H]1[C@H]2C/C(=C/CCCC(=O)O)C[C@H]2C[C@H]1O (some centres undefined) [iloprost] (10 µM) | -0.0154 |
| Nc1nc(F)nc2c1ncn2[C@@H]1O[C@H](CO)[C@@H](O)[C@@H]1O [fludarabine] (9.99886 µM) | 0.0527 |
| Cc1ccc(NC(=O)c2ccc(CN3CCN(C)CC3)cc2)cc1Nc1nc(-c2cccnc2)cs1 [masitinib] (10 µM) | 0.0805 |
| N=C(N)c1ccc(OCCCCCOc2ccc(C(=N)N)cc2)cc1 [pentamidine] (10.00031669 µM) | 0.00632 |
| NNc1nncc2ccccc12 [hydralazine] (10 µM) | 0.0119 |
| Clc1ccc(C(c2ccccc2Cl)C(Cl)Cl)cc1 (centres undefined) [mitotane] (10 µM) | -0.0195 |
| CNC(=O)c1ccccc1Sc1ccc2c(/C=C/c3ccccn3)n[nH]c2c1 [axitinib] (20 µM) | -0.0357 |
| NCCc1ccc(O)c(O)c1 [dopamine] (10.0004 µM) | 0.0125 |
| CCCCCOC(=O)Nc1nc(=O)n([C@@H]2O[C@H](C)[C@@H](O)[C@H]2O)cc1F [capecitabine] (20 µM) | -0.0162 |
| OC(c1cc(C(F)(F)F)nc2c(C(F)(F)F)cccc12)C1CCCCN1 (centres undefined) [mefloquine] (10 µM) | 0.0285 |
| COc1ccccc1Oc1c(NS(=O)(=O)c2ccc(C(C)(C)C)cc2)nc(-c2ncccn2)nc1OCCO [bosentan] (9.99938 µM) | 0.148 |
| N[C@@H]1CONC1=O [d-cycloserine] (10 µM) | 0.0728 |
| CCCS(=O)(=O)Nc1ccc(F)c(C(=O)c2c[nH]c3ncc(-c4ccc(Cl)cc4)cc23)c1F [vemurafenib] (20 µM) | -0.0123 |
| Cc1nc2n(c(=O)c1CCN1CCC(c3noc4cc(F)ccc34)CC1)CCCC2 [risperidone] (10.00083684 µM) | -0.00601 |
| CCN(CC)CCCC(C)Nc1ccnc2cc(Cl)ccc12 (centres undefined) [chloroquine] (9.99975 µM) | 0.151 |

2 compounds drawn at random from the list so far:

| SMILES | BRD4 median nuclear fluorescence intensity change (log2) |
| --- | --- |
| Cc1ccsc1C(=CCCN1CCC[C@@H](C(=O)O)C1)c1sccc1C [tiagabine] (11 µM) | 0.102 |
| CNC(=O)c1ccccc1Sc1ccc2c(/C=C/c3ccccn3)n[nH]c2c1 [axitinib] (20 µM) | -0.0357 |

Further structures follow:

| SMILES | BRD4 median nuclear fluorescence intensity change (log2) |
| --- | --- |
| C[C@@H](NCCCc1cccc(C(F)(F)F)c1)c1cccc2ccccc12 [cinacalcet] (10 µM) | 0.0614 |
| CC(C)C[C@H](NC(=O)[C@H](CCc1ccccc1)NC(=O)CN1CCOCC1)C(=O)N[C@@H](Cc1ccccc1)C(=O)N[C@@H](CC(C)C)C(=O)[C@@]1(C)CO1 [carfilzomib] (0.00117 µM) | -0.00653 ± 0.038 |
| C[C@@H]1O[C@@H]1P(=O)(O)O [fosfomycin] (10 µM) | 0.127 |
| CCCc1cc(=O)[nH]c(=S)[nH]1 [propylthiouracil] (10 µM) | 0.0262 |
| C[C@](N)(Cc1ccc(O)c(O)c1)C(=O)O [methyldopa] (10 µM) | 0.00989 |
| NC(=O)c1cn(Cc2c(F)cccc2F)nn1 [rufinamide] (10 µM) | -0.0016 |
| CC(C)C[C@H](NC(=O)[C@H](Cc1ccccc1)NC(=O)c1cnccn1)B(O)O [bortezomib] (0.00595 µM) | 0.112 ± 0.13 |
| Nc1nc(N)c2nc(CNc3ccc(C(=O)N[C@@H](CCC(=O)O)C(=O)O)cc3)cnc2n1 [aminopterin] (20 µM) | 0.067 |
| O=C1C(O)=C([C@H]2CC[C@H](c3ccc(Cl)cc3)CC2)C(=O)c2ccccc21 [atovaquone] (10 µM) | 0.0321 |
| C[C@]12CC[C@@H]3c4ccc(O)cc4C[C@@H](CCCCCCCCC[S+]([O-])CCCC(F)(F)C(F)(F)F)[C@H]3[C@@H]1CC[C@@H]2O (some centres undefined) [fulvestrant] (20 µM) | -0.0225 |
| CNCCCC12CCC(c3ccccc31)c1ccccc12 [maprotiline] (11.3144 µM) | 0.116 |
| O=C(O)C(=O)O.[NH-][C@@H]1CCCC[C@H]1[NH-].[Pt+2] [oxaliplatin] (20 µM) | -0.0146 |
| COc1cc2/c(=N/c3ccc(Br)cc3F)nc[nH]c2cc1OCC1CCN(C)CC1 [vandetanib] (20 µM) | 0.158 |
| O=C(O)[C@H]1O[C@@H](Oc2ccc([C@@H]3[C@@H](CC[C@H](O)c4ccc(F)cc4)C(=O)N3c3ccc(F)cc3)cc2)[C@H](O)[C@@H](O)[C@@H]1O [ezetimibe glucuronide] (10 µM) | 0.138 |
| Nc1nc(NC2CC2)c2ncn([C@H]3C=C[C@@H](CO)C3)c2n1 [abacavir] (10 µM) | -0.026 |
| COCc1c(C(C)C)nc(C(C)C)c(/C=C/[C@@H](O)C[C@@H](O)CC(=O)O)c1-c1ccc(F)cc1 [cerivastatin] (10.5 µM) | 0.223 |
| NS(=O)(=O)Cc1noc2ccccc12 [zonisamide] (10 µM) | 0.049 |
| CC[N+](C)(CC)CCOC(=O)C(O)(c1ccccc1)C1CCCCC1 (centres undefined) [oxyphenonium bromide] (9.99928 µM) | 0.0227 |
| S=c1nc[nH]c2nc[nH]c12 [6-mercaptopurine] (10.0013 µM) | 0.0164 |
